Data reported in patent US20080108581A1, “Compounds and Their Use for Specific and Simultaneous Inhibition of Genes Involved In Diseases and Related Drugs” (INSTITUT NATIONAL DE LA SANTE ET DE LA RECHERCHE MEDICAL …, priority 2003, published 2008).
The exact form of at least one protein or probe is not confirmed. Protein sequences can lack the tags named with them.

Molecular target: T1, DNA topoisomerase I (Homo sapiens) (UniProt P11387)
T1 sequence (looked up, limits assumed): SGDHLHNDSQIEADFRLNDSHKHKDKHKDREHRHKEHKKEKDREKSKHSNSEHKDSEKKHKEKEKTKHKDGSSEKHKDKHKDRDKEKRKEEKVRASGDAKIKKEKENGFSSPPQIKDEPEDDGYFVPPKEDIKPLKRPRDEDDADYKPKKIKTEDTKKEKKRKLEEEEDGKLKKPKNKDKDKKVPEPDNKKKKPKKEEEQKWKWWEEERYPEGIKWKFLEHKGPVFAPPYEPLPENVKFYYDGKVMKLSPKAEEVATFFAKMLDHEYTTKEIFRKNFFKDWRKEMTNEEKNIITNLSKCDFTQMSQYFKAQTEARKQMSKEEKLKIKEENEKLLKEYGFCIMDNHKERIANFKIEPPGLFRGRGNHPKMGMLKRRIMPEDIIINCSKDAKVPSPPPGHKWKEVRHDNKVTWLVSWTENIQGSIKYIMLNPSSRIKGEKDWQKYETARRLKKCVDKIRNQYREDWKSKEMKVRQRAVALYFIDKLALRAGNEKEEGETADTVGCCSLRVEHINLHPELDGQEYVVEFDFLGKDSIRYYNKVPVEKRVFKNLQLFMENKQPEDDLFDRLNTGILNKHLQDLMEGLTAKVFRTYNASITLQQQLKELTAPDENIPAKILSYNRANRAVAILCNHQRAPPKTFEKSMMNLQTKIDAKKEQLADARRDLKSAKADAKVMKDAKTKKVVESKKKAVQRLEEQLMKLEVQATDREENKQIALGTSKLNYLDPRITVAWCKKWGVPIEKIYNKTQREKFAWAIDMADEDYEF
Test: enzyme reaction in vitro
Conditions: purified recombinant protein, protein details: Invitrogen, 10 units per reaction

Sequence | activity on this sequence (conjugate-directed cleavage extended to this target, flanks not stated) | activity on this sequence (TFO16-camptothecin conjugates: cleavage only at site b 3' of triplex, free camptothecins cleave at sites a-i, 10 mM MgCl2, 60 mM KCl, pH 7.5, 30 C, label: 32P 3' end)
GAAGAGGGAGAGAGAGAGAAGG / TCTTCTCCCTCTCTCTCTCTTCC [IGF-1 promoter 1 target] | active | 
GAATTCAAGCTTACACTCCCTATCAGTGATAGAGAGAGAGAAAAAAGAGAAGATCTGAGCTCGGTACCCTAGGATC / CTTAAGTTCGAATGTGAGGGATAGTCACTATCTCTCTCTCTTTTTTTCTCTTCTAGACTCGAGCCATGGGATCCTAG |  | active
